This passage reports log2 fold change results from the supplement of paper PMC12819154, “High-throughput peptide-centric local stability assay extends protein–ligand identification to membrane proteins, tissues and bacteria” (Nature Structural & Molecular Biology, 2025).

Protein sequences, listed by entry. Tags and fused reporters are not part of them.
UniProt Q92736, whole entry: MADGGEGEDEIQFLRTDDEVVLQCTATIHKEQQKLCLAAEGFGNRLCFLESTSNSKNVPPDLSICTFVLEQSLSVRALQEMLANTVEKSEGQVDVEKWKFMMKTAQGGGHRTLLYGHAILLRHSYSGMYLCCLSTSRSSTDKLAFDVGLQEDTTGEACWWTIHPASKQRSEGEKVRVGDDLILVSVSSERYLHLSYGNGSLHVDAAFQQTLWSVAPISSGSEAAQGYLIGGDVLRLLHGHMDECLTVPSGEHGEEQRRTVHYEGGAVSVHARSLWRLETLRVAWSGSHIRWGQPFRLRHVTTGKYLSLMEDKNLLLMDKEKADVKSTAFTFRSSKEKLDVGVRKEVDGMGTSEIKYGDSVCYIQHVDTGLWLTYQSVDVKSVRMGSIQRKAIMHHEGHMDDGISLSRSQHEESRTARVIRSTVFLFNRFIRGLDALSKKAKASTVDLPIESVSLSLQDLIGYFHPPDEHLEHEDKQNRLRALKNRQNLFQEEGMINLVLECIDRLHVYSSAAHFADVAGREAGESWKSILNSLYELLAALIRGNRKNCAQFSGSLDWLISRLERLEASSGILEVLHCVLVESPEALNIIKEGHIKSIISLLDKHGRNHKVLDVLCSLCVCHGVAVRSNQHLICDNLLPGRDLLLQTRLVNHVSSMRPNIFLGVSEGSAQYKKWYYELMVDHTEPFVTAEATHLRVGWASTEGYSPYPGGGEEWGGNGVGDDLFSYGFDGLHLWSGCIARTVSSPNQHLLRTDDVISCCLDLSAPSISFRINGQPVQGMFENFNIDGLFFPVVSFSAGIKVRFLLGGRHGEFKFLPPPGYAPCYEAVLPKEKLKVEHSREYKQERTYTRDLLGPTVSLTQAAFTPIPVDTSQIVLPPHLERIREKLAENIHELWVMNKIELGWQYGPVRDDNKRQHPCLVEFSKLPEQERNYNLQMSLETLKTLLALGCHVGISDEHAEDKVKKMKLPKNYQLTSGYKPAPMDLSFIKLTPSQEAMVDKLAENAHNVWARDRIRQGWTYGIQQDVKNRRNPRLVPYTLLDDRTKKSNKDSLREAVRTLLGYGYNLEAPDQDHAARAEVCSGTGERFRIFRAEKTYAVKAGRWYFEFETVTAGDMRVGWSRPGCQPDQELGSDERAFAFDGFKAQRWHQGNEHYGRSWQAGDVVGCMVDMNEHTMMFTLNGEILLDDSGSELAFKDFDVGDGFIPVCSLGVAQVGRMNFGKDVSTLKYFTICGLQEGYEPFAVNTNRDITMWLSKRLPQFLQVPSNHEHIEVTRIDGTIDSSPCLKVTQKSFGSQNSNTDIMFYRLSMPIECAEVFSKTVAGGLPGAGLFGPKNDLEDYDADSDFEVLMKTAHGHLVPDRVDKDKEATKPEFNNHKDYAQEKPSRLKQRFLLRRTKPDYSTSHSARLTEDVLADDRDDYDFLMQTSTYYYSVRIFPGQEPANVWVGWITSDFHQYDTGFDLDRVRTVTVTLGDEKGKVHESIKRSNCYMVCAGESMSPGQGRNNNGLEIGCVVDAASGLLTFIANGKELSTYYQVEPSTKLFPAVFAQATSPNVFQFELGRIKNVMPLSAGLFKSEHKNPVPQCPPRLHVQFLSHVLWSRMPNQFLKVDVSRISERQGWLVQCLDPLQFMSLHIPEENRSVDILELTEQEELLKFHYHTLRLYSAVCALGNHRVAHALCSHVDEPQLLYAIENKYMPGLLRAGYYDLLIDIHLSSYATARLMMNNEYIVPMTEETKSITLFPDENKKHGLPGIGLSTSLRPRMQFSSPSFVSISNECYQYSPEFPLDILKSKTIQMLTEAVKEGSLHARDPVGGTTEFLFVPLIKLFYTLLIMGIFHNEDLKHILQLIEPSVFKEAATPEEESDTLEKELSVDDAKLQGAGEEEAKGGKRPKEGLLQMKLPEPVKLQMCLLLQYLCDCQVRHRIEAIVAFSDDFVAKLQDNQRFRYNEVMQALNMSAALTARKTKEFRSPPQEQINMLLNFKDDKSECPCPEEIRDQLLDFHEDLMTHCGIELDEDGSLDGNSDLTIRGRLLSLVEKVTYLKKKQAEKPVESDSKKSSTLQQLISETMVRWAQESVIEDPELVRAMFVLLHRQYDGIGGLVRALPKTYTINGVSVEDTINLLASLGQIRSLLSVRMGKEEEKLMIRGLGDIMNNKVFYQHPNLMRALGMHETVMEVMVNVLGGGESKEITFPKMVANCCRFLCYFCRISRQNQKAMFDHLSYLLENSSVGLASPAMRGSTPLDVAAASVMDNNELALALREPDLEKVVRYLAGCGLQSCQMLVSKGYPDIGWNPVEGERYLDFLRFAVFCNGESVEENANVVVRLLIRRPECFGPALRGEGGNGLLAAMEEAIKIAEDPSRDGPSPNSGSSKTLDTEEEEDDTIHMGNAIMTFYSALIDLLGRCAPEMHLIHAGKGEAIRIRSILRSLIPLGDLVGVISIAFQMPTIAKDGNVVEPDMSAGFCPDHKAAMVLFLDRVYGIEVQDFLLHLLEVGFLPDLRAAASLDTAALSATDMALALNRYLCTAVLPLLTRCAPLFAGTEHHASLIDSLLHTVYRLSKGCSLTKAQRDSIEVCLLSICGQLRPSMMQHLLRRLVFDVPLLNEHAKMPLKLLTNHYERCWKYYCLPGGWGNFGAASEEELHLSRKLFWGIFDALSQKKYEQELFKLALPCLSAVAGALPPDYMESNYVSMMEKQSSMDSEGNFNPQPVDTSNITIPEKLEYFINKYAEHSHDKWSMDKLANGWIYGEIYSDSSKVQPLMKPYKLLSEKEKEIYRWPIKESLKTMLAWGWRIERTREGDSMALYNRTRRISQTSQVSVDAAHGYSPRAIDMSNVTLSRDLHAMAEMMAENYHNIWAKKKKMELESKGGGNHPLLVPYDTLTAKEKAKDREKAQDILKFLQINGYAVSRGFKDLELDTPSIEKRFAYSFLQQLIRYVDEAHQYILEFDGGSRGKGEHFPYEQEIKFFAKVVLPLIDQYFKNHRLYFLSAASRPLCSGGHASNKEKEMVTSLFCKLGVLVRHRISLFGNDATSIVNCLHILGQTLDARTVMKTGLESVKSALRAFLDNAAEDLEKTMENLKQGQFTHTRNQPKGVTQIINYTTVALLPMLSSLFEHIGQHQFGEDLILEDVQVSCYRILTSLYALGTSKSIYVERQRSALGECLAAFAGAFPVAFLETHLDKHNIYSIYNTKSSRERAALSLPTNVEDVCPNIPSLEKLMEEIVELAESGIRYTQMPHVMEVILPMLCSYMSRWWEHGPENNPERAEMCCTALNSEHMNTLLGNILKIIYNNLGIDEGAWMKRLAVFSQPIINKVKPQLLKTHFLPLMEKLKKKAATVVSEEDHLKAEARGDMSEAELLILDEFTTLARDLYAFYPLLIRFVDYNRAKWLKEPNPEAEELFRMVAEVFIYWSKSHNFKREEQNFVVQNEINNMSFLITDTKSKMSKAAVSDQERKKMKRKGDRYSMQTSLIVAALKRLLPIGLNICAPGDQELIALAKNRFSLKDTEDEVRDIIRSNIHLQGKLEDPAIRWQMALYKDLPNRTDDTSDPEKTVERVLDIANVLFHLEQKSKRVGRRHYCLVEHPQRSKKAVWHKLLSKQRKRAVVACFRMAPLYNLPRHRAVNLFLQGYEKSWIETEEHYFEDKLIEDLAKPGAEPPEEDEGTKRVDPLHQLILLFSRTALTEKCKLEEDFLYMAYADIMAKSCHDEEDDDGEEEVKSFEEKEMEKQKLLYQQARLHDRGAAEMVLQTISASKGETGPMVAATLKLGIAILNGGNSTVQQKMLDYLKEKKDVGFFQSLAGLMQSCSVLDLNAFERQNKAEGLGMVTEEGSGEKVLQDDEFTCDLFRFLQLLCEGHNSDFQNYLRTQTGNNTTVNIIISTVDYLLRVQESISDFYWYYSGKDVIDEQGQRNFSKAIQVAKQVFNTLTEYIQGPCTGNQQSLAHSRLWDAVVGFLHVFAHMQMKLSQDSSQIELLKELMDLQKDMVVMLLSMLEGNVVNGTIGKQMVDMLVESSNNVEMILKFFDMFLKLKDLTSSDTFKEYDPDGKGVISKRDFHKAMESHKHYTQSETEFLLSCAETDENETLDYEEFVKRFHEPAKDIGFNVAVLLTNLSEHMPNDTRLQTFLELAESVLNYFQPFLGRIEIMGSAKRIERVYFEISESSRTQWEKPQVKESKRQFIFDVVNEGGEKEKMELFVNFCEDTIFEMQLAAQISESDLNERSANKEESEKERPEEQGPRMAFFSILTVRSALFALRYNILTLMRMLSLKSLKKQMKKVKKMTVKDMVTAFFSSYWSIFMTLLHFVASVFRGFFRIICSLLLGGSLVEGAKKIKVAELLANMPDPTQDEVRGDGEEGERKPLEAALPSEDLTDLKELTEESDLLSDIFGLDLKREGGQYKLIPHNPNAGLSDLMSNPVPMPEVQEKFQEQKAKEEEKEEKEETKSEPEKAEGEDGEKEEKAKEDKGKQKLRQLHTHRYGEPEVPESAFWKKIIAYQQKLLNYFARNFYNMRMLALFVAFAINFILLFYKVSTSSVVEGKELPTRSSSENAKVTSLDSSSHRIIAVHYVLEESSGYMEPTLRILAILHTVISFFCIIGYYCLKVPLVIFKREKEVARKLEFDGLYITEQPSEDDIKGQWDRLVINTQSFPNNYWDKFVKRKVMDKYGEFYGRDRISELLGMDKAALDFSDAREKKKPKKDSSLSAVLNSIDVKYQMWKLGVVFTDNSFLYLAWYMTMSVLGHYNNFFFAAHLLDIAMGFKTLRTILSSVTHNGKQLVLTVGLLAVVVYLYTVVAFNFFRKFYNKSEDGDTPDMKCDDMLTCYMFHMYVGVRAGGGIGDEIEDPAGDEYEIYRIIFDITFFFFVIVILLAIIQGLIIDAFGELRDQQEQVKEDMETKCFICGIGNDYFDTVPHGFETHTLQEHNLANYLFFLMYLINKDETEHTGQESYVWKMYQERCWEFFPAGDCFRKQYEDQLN

This experiment deals with UniProt Q92736. As to the kind of experiment: log2 fold change of tryptic peptide abundance, ligand vs vehicle (limited proteolysis) (log2 ratio); higher = more trypsin-susceptible (destabilized). The note with it: peptide sequence: KKMELESK; peptide start residue: 2856; ligand concentration: 5 uM; sample: K562 cleared lysate.

The other results are listed elsewhere or left out. Most entries show no effect beyond the scatter of the controls.

As to `Cc1nc(Nc2ncc(C(=O)Nc3c(C)cccc3Cl)s2)cc(N2CCN(CCO)CC2)n1` [dasatinib], the log2 fold change was 0.0429.
